We go through 13 compounds from the odorant receptor screen of Mainland et al. (2015).

Structures are written as SMILES. Several values for one entry are separate records, joined by “and”; a condition that tells them apart may be missing. Equal entries are not always repeated. The list shows a part of the results. Single wells; the ratio to wells without odorant was worked out here, and repeats agree poorly.

Test systems include OR51L1 clone 1534; OR51Q1 clone 1190; OR51S1 clone 1699; OR51T1 clone 1326; OR51V1 clone 1700; OR51V1 clone 1701; OR52A1 S272P clone 1151; OR52A4 clone 1719; OR52A5 clone 1568.
Common to all, as to test: odorant receptor activation (CRE luciferase / Renilla) (fold of no-odor wells); higher = more activation
Holding throughout (settings): 100 µM

Assay [1] concerns OR51M1 H91Q/L124F/I193T/P245H/F307L clone 1121.

Turning to `CCCCCCCCCCC=O` [undecanal], the odorant receptor activation turned out to be 0.981 with OR51L1 clone 1534; 0.893 in assay [1]; 0.91 with OR51Q1 clone 1190; 1.02 with OR51S1 clone 1699; 0.97 with OR51T1 clone 1326; 1.23 with OR51V1 clone 1700. The odorant receptor activation in the assay with OR51V1 clone 1701 was 0.784; with OR52A1 S272P clone 1151, 0.843; in the assay with OR52A4 clone 1719, 0.876; in the assay with OR52A5 clone 1568 it was 1.17.
As to `CC(=O)OC(C)(C)C1CC=C(C)CC1` (configuration not stated) [terpinyl acetate], the odorant receptor activation in the assay on OR51L1 clone 1534 turned out to be 0.869; in assay [1] it was 0.864; with OR51Q1 clone 1190, 1.12; in the assay on OR51S1 clone 1699, 1.04; in the assay on OR51T1 clone 1326, 0.843; in the assay on OR51V1 clone 1700, 1.29. The odorant receptor activation in the assay on OR51V1 clone 1701 amounted to 0.883; in the assay with OR52A1 S272P clone 1151, 1.21; with OR52A4 clone 1719, 0.958; in the assay with OR52A5 clone 1568, 1.
Turning to `CCCCCOC(C)=O` [n-amyl acetate], the odorant receptor activation was 0.575 and 0.714 with OR51L1 clone 1534; 1 in assay [1]; 0.408 in the assay with OR51Q1 clone 1190; 1.14 with OR51S1 clone 1699; 0.309 with OR51T1 clone 1326; 1.15 in the assay with OR51V1 clone 1700. In addition, the odorant receptor activation amounted to 0.815 in the assay with OR51V1 clone 1701, 0.501 in the assay on OR52A1 S272P clone 1151, 0.919 with OR52A4 clone 1719 and 1.04 with OR52A5 clone 1568.
For `CCCCCC(C)=O` [2-heptanone], the odorant receptor activation in the assay with OR51L1 clone 1534 is 0.777 and 0.645; with OR51Q1 clone 1190 it was 0.867; in the assay on OR51T1 clone 1326, 0.974; with OR52A1 S272P clone 1151, 1.51.
Regarding `CCCCCCCCC=O` [nonyl aldehyde], the odorant receptor activation was determined as 1.06 with OR51L1 clone 1534; 1.59 in assay [1]; 1.04 in the assay with OR51Q1 clone 1190; 0.682 in the assay on OR51S1 clone 1699; 0.605 with OR51T1 clone 1326; 1.18 in the assay with OR51V1 clone 1700. For the same compound, the odorant receptor activation came out at 0.696 with OR51V1 clone 1701, 1.02 in the assay with OR52A1 S272P clone 1151, 0.755 with OR52A4 clone 1719 and 0.89 in the assay with OR52A5 clone 1568.
Consider `COC(=O)c1ccccc1` [methyl benzoate], for which the odorant receptor activation with OR51L1 clone 1534 is 0.429 and 0.743; in the assay on OR51Q1 clone 1190, 0.622; with OR51T1 clone 1326 it was 0.393; in the assay with OR52A1 S272P clone 1151 it was 0.903.
On to `O=C1CCCCC1` [Cyclohexanone], for which the odorant receptor activation in the assay on OR51L1 clone 1534 is 0.52 and 0.865; in the assay with OR51Q1 clone 1190, 0.46; in the assay on OR51T1 clone 1326, 0.345; in the assay on OR52A1 S272P clone 1151, 0.679.
Consider `CCCCCCCCCC=O` [decyl aldehyde], for which the odorant receptor activation in the assay on OR51L1 clone 1534 was determined as 0.986; in [1], 1.9; with OR51Q1 clone 1190, 1.2; in the assay on OR51S1 clone 1699, 0.645; in the assay on OR51T1 clone 1326 it was 1.15; in the assay with OR51V1 clone 1700, 0.598. In addition, the odorant receptor activation with OR51V1 clone 1701 came to 0.98; in the assay with OR52A1 S272P clone 1151, 1.12; with OR52A4 clone 1719 it was 0.729; with OR52A5 clone 1568, 0.986.
With `CC=Cc1ccc(O)c(OC)c1` [isoeugenol], the odorant receptor activation is 1.29 and 1.32 with OR51L1 clone 1534; 5.56 in assay [1]; 1.04 in the assay on OR51Q1 clone 1190; 4.07 in the assay with OR51S1 clone 1699; 1.06 and 1.02 with OR51T1 clone 1326; 4.2 in the assay with OR51V1 clone 1700. The odorant receptor activation in the assay on OR51V1 clone 1701 is 5.93; in the assay on OR52A1 S272P clone 1151 it was 1.27; with OR52A4 clone 1719 it was 3.55; in the assay with OR52A5 clone 1568 it was 5.36.
`C=CCSCC=C` [diallyl sulfide]: the odorant receptor activation came out at 1.25 with OR51L1 clone 1534; 1.77 in assay [1]; 0.951 in the assay on OR51Q1 clone 1190; 0.589 in the assay with OR51S1 clone 1699; 1.13 in the assay on OR51T1 clone 1326; 0.589 in the assay on OR51V1 clone 1700. Besides, the odorant receptor activation with OR51V1 clone 1701 was 1.02; in the assay on OR52A1 S272P clone 1151, 0.95; in the assay with OR52A4 clone 1719, 0.742; with OR52A5 clone 1568, 1.01.
In the case of `CCCCCC(=O)O` [caproic acid], the odorant receptor activation was 2.56 in the assay with OR51L1 clone 1534; 0.899 in [1]; 0.906 with OR51Q1 clone 1190; 1.05 in the assay with OR51S1 clone 1699; 0.83 with OR51T1 clone 1326; 0.783 with OR51V1 clone 1700. Moreover, the odorant receptor activation was 0.716 in the assay on OR51V1 clone 1701, 0.922 with OR52A1 S272P clone 1151, 0.336 in the assay with OR52A4 clone 1719 and 1.18 in the assay with OR52A5 clone 1568.
As for `CC(C)C(=O)O` [isobutyric acid], the odorant receptor activation with OR51L1 clone 1534 was 0.989 and 0.869; in assay [1], 1.07; in the assay with OR51Q1 clone 1190, 1.12; in the assay with OR51S1 clone 1699, 1.03; in the assay with OR51T1 clone 1326 it was 1.05 and 1.06; with OR51V1 clone 1700 it was 1.05. Moreover, the odorant receptor activation in the assay with OR51V1 clone 1701 worked out at 1.13; with OR52A1 S272P clone 1151, 0.994; in the assay on OR52A4 clone 1719 it was 0.854; with OR52A5 clone 1568 it was 0.794.
As for `O=C1CCCCCCCCCCCCCCO1` [pentadecalactone], the odorant receptor activation with OR51L1 clone 1534 was 0.965; in [1] it was 0.843; in the assay with OR51Q1 clone 1190, 0.561; in the assay on OR51S1 clone 1699, 0.7; with OR51T1 clone 1326, 0.754; in the assay with OR51V1 clone 1700 it was 0.959. The odorant receptor activation was 0.564 in the assay on OR51V1 clone 1701, 0.712 with OR52A1 S272P clone 1151, 0.724 with OR52A4 clone 1719 and 0.767 with OR52A5 clone 1568.
